According to the supplement of paper PMC12823440, “Inhibitors supercharge kinase turnover through native proteolytic circuits” (Nature, 2025):
Structures can show the parent of a compound that is named as a salt. This is one part of the list. Hit calls seldom repeat between salt and free forms of one compound.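 In K562 cells expressing nanoluciferase-fused kinases, luminescence was recorded at 4 h intervals between 2 and 18 h, normalized as percent of control with DMSO at 100% and a positive control at 0%. A significant (2 sigma) signal drop marks a time point as decreased. The authors' rule for a hit is not shown and takes in more than the number of time points.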

Protein sequences, listed by entry. Tags and fused reporters are not part of them. Lines headed by an entry give the natural chain unless they say otherwise; changes in a name come on top.
UniProt P07949, whole entry, looked up: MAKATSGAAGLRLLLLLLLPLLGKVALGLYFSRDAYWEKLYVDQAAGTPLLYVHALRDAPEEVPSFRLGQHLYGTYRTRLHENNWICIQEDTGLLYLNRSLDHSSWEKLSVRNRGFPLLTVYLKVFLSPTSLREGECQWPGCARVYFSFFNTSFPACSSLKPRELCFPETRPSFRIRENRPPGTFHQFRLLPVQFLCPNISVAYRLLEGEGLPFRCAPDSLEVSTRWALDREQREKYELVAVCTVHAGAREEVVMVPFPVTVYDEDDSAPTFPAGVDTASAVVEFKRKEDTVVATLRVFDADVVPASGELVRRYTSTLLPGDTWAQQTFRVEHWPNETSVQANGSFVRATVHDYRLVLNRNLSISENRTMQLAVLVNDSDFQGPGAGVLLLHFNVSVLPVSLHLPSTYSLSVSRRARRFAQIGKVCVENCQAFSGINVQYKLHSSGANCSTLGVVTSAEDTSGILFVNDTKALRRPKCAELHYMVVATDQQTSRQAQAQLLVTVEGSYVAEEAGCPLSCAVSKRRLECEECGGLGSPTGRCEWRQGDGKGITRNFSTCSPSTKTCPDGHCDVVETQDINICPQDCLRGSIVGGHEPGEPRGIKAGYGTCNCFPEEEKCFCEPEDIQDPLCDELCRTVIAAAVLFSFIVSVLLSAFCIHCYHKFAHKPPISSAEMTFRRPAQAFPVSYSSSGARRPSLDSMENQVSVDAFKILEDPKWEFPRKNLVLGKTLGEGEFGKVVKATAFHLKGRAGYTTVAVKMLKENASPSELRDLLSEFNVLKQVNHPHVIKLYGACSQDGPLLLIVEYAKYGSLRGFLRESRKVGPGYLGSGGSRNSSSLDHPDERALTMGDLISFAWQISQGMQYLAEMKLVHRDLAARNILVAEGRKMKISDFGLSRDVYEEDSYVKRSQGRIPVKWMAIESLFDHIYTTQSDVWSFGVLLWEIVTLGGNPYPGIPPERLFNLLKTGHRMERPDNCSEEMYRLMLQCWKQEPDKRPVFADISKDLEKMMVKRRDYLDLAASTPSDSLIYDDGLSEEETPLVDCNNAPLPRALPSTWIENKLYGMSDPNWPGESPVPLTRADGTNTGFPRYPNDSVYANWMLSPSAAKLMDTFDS
UniProt P07949, whole entry M918T, looked up: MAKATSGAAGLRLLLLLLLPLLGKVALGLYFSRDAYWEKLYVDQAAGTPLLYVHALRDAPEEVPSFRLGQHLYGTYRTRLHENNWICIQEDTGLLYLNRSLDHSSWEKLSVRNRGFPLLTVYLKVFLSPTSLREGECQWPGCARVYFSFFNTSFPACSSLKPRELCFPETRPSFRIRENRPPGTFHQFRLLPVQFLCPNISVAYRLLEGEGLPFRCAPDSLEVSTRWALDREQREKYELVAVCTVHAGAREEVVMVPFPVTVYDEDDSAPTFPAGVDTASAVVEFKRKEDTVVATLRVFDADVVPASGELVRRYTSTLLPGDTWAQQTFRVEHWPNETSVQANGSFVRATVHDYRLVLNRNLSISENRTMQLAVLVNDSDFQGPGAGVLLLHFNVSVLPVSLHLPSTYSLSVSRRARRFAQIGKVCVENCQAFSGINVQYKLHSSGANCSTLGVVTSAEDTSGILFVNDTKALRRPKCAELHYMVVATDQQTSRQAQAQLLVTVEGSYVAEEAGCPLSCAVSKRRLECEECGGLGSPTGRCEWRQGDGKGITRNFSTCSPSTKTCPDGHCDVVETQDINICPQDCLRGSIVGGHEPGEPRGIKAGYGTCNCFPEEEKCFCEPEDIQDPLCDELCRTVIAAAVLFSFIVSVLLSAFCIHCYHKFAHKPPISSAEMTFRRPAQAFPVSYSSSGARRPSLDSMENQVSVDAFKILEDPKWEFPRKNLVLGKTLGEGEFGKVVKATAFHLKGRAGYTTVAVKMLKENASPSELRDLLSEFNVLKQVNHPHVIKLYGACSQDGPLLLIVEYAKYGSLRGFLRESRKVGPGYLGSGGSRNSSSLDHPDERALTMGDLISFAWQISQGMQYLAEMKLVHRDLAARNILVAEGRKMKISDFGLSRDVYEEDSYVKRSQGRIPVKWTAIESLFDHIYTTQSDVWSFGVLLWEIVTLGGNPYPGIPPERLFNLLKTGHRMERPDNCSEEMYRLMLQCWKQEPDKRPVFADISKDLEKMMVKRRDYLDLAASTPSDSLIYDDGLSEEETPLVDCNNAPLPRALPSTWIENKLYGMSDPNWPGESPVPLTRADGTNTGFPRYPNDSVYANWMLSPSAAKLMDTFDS
UniProt Q01974, whole entry: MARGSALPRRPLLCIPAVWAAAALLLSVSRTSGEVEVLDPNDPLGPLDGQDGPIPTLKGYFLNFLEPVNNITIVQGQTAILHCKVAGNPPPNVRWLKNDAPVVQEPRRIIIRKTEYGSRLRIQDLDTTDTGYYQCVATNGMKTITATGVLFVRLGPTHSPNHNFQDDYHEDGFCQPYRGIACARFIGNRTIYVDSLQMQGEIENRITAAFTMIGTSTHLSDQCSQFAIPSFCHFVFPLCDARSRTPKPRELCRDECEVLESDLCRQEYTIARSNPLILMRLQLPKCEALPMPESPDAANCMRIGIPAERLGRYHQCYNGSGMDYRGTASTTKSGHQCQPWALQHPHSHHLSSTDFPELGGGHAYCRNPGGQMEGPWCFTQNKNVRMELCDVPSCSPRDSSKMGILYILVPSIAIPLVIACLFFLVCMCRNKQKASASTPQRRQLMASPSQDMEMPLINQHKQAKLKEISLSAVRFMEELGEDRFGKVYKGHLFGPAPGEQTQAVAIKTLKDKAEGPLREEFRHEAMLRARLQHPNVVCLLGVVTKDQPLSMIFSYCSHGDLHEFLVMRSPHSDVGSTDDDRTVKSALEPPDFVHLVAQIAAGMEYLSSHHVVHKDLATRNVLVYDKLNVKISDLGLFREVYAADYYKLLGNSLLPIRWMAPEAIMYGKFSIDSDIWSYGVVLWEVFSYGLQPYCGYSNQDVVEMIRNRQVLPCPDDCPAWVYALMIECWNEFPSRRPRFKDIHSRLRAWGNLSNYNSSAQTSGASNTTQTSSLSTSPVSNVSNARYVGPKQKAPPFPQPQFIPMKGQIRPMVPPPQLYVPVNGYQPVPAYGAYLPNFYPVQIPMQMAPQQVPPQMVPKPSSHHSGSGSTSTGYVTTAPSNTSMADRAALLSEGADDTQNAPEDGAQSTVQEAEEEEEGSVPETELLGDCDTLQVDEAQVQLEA
UniProt Q9Y6E0: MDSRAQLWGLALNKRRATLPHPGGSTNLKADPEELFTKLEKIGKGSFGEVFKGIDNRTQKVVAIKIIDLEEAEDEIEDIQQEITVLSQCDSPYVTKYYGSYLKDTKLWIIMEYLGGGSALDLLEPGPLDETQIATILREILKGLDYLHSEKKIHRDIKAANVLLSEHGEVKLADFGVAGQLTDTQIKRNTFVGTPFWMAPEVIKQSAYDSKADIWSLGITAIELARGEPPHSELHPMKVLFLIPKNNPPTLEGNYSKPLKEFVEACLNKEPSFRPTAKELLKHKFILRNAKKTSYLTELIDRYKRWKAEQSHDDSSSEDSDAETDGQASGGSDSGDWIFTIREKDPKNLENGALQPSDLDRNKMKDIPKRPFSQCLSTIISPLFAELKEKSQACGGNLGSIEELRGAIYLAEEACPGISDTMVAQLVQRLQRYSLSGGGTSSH
UniProt Q15208: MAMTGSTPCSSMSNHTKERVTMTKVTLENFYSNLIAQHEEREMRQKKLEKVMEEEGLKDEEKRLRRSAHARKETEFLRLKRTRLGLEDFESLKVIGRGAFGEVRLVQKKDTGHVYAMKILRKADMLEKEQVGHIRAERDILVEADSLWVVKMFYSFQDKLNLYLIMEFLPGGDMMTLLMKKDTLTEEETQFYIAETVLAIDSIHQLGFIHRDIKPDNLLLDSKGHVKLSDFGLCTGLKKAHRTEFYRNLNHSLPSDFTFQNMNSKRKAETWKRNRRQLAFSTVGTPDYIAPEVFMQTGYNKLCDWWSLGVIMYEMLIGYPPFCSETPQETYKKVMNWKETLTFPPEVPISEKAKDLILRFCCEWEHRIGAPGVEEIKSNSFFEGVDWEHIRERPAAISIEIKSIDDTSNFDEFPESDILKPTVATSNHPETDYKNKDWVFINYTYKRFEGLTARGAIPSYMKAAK
UniProt P29597: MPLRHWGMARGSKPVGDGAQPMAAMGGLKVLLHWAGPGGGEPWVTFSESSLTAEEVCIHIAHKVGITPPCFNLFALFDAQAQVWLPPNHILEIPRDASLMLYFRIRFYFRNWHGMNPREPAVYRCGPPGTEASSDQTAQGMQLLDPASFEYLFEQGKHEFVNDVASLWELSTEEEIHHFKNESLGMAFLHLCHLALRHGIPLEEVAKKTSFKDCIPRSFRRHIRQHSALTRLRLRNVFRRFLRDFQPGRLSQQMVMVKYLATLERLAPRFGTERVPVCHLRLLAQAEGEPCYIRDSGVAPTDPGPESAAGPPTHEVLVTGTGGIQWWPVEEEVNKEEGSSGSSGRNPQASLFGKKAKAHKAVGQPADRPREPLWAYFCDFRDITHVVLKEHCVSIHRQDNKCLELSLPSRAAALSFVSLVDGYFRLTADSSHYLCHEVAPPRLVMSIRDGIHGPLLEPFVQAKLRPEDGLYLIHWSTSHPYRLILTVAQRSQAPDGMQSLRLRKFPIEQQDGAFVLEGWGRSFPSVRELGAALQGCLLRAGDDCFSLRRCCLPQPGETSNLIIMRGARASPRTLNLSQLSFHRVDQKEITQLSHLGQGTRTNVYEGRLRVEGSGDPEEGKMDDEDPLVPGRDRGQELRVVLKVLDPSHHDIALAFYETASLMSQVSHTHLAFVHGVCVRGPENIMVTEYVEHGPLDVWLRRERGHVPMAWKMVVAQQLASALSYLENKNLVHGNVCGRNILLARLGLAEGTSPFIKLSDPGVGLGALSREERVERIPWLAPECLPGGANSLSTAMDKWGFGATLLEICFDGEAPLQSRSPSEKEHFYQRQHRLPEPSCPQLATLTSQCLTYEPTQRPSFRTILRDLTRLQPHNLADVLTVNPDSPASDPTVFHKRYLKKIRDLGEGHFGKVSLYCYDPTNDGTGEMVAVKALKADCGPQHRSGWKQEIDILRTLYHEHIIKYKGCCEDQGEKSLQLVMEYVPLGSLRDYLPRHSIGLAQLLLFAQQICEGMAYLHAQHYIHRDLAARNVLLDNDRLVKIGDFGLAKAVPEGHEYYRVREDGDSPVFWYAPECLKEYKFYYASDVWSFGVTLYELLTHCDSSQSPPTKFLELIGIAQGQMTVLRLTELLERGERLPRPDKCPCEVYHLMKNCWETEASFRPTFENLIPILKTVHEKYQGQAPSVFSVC
UniProt Q6PHR2: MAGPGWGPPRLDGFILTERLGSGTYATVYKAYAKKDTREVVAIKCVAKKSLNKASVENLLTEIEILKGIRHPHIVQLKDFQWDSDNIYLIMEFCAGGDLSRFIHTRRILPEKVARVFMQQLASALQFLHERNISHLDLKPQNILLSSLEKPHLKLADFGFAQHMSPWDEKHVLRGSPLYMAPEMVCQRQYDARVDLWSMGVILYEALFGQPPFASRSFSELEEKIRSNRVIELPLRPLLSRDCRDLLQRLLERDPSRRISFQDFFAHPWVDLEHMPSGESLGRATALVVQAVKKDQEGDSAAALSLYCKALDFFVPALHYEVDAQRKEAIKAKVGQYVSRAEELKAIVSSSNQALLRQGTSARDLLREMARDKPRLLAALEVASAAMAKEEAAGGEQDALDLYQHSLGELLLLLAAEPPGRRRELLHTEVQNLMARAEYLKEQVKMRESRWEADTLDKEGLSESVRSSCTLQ
UniProt P07947, whole entry, looked up: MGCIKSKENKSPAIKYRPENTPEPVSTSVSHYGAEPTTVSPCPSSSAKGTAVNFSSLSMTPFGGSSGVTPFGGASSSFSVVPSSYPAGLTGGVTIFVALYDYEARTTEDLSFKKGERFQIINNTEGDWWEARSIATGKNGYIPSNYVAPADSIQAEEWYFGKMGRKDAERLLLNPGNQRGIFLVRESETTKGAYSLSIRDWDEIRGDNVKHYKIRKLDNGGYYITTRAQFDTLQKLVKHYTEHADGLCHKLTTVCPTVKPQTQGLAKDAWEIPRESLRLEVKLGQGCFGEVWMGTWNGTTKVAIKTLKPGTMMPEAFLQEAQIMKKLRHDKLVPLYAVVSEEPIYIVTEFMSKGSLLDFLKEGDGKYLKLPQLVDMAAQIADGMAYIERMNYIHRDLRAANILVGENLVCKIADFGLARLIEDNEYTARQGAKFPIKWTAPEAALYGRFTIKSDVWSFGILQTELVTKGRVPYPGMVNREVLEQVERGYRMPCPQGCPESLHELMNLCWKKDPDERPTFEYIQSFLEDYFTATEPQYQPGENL
UniProt P11802: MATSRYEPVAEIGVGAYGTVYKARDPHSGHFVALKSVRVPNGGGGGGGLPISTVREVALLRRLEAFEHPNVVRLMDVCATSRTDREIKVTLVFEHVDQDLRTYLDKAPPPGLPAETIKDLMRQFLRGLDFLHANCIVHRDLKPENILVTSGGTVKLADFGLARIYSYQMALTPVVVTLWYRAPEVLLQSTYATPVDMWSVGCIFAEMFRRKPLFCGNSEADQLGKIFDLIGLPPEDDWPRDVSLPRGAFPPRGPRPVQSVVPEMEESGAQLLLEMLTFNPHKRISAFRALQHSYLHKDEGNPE

Assays:
[1] = molecular target: RET (UniProt P07949); test: kinase-Nluc reporter destabilization hit call (1 = scored as downregulated) (binary); higher = compound decreases kinase abundance; conditions: K562, 2-18 h
[2] = molecular target: RET_M918T (clone: RET_mut) (UniProt P07949); test: as above; conditions: K562, 2-18 h
[3] = molecular target: RIOK1 (UniProt Q9BRS2); test: as above; conditions: K562, 2-18 h
[4] = molecular target: RIPK1 (UniProt Q13546); test: as above; conditions: K562, 2-18 h
[5] = molecular target: RIPK2 (UniProt O43353); test: as above; conditions: K562, 2-18 h
[6] = molecular target: ROR2 (UniProt Q01974); test: as above; conditions: K562, 2-18 h
[7] = molecular target: RPS6KA1 (UniProt Q15418); test: as above; conditions: K562, 2-18 h
[8] = molecular target: SPHK1 (UniProt Q9NYA1); test: as above; conditions: K562, 2-18 h
[9] = molecular target: STK24 (UniProt Q9Y6E0); test: as above; conditions: K562, 2-18 h
[10] = molecular target: STK38 (UniProt Q15208); test: as above; conditions: K562, 2-18 h
[11] = molecular target: SYK (UniProt P43405); test: as above; conditions: 2.5 µM; K562; 2-18 h
[12] = molecular target: TEC (UniProt P42680); test: as above; conditions: K562, 2-18 h
[13] = molecular target: TYK2 (UniProt P29597); test: as above; conditions: K562, 2-18 h
[14] = molecular target: ULK3 (UniProt Q6PHR2); test: as above; conditions: K562, 2-18 h
[15] = molecular target: YES1 (UniProt P07947); test: as above; conditions: K562, 2-18 h
[16] = molecular target: ZAK (UniProt Q9NYL2); test: as above; conditions: K562, 2-18 h
[17] = molecular target: ZAP70 (UniProt P43403); test: as above; conditions: K562, 2-18 h
[18] = molecular target: CDK4 (UniProt P11802); test: number of time points (of 4; 2 h point missing) at which kinase-Nluc abundance scored as decreased, DMSO-normalised (count); higher = more persistent destabilization; conditions: K562, 2-18 h
[19] = molecular target: CDK7 (UniProt P50613); test: as above; conditions: K562, 2-18 h
[20] = molecular target: SRC (UniProt P12931); test: kinase-Nluc reporter destabilization hit call (1 = scored as downregulated) (binary); higher = compound decreases kinase abundance; conditions: K562, 2-18 h

C=CC(=O)N1CCC[C@@H](n2nc(-c3ccc(Oc4ccccc4)cc3)c3c(N)ncnc32)C1 [Ibrutinib]
inactive: kinase-Nluc reporter destabilization hit call ([1]; 2.5 µM) 0 | kinase-Nluc reporter destabilization hit call ([2]; 2.5 µM) 0 | kinase-Nluc reporter destabilization hit call ([3]; 2.5 µM) 0 | kinase-Nluc reporter destabilization hit call ([4]; 2.5 µM) 0 | kinase-Nluc reporter destabilization hit call ([5]; 2.5 µM) 0 | kinase-Nluc reporter destabilization hit call ([6]; 2.5 µM) 0 | kinase-Nluc reporter destabilization hit call ([7]; 2.5 µM) 0 | kinase-Nluc reporter destabilization hit call ([8]; 2.5 µM) 0 | kinase-Nluc reporter destabilization hit call ([9]; 2.5 µM) 0 | kinase-Nluc reporter destabilization hit call ([10]; 2.5 µM) 0 | kinase-Nluc reporter destabilization hit call [11] 0 | kinase-Nluc reporter destabilization hit call ([12]; 2.5 µM) 0 | kinase-Nluc reporter destabilization hit call ([13]; 2.5 µM) 0 | kinase-Nluc reporter destabilization hit call ([14]; 2.5 µM) 0 | kinase-Nluc reporter destabilization hit call ([15]; 2.5 µM) 0 | kinase-Nluc reporter destabilization hit call ([16]; 2.5 µM) 0 | kinase-Nluc reporter destabilization hit call ([17]; 2.5 µM) 0
0: number of time points ([18]; 2.5 µM) | number of time points ([19]; 2.5 µM)

COc1ccc(-c2cc3nccn3c(Nc3ncccc3C(N)=O)n2)cc1OC [BAY 61-3606 (dihydrochloride)]
0: number of time points ([18]; 2.5 µM) | number of time points ([19]; 2.5 µM)
inactive: kinase-Nluc reporter destabilization hit call ([3]; 2.5 µM) 0 | kinase-Nluc reporter destabilization hit call ([4]; 2.5 µM) 0 | kinase-Nluc reporter destabilization hit call ([5]; 2.5 µM) 0 | kinase-Nluc reporter destabilization hit call ([6]; 2.5 µM) 0 | kinase-Nluc reporter destabilization hit call ([7]; 2.5 µM) 0 | kinase-Nluc reporter destabilization hit call ([8]; 2.5 µM) 0 | kinase-Nluc reporter destabilization hit call ([20]; 2.5 µM) 0 | kinase-Nluc reporter destabilization hit call ([9]; 2.5 µM) 0 | kinase-Nluc reporter destabilization hit call ([10]; 2.5 µM) 0 | kinase-Nluc reporter destabilization hit call [11] 0 | kinase-Nluc reporter destabilization hit call ([12]; 2.5 µM) 0 | kinase-Nluc reporter destabilization hit call ([13]; 2.5 µM) 0 | kinase-Nluc reporter destabilization hit call ([14]; 2.5 µM) 0 | kinase-Nluc reporter destabilization hit call ([15]; 2.5 µM) 0 | kinase-Nluc reporter destabilization hit call ([17]; 2.5 µM) 0

NC(=O)c1c(OCc2c(F)cc(Br)cc2F)nsc1NC(=O)NCCCCN1CCCC1
0: number of time points ([18]; 2.5 µM) | number of time points ([19]; 2.5 µM)
inactive: kinase-Nluc reporter destabilization hit call ([3]; 2.5 µM) 0 | kinase-Nluc reporter destabilization hit call ([4]; 2.5 µM) 0 | kinase-Nluc reporter destabilization hit call ([5]; 2.5 µM) 0 | kinase-Nluc reporter destabilization hit call ([6]; 2.5 µM) 0 | kinase-Nluc reporter destabilization hit call ([7]; 2.5 µM) 0 | kinase-Nluc reporter destabilization hit call ([8]; 2.5 µM) 0 | kinase-Nluc reporter destabilization hit call ([20]; 2.5 µM) 0 | kinase-Nluc reporter destabilization hit call ([9]; 2.5 µM) 0 | kinase-Nluc reporter destabilization hit call ([10]; 2.5 µM) 0 | kinase-Nluc reporter destabilization hit call ([12]; 2.5 µM) 0 | kinase-Nluc reporter destabilization hit call ([13]; 2.5 µM) 0 | kinase-Nluc reporter destabilization hit call ([14]; 2.5 µM) 0 | kinase-Nluc reporter destabilization hit call ([15]; 2.5 µM) 0 | kinase-Nluc reporter destabilization hit call ([16]; 2.5 µM) 0 | kinase-Nluc reporter destabilization hit call ([17]; 2.5 µM) 0

CCOc1cc2ncc(C#N)c(Nc3ccc(F)c(Cl)c3)c2cc1NC(=O)/C=C/CN(C)C [Pelitinib]
0: number of time points ([18]; 2.5 µM) | number of time points ([19]; 2.5 µM)
inactive: kinase-Nluc reporter destabilization hit call ([1]; 2.5 µM) 0 | kinase-Nluc reporter destabilization hit call ([2]; 2.5 µM) 0 | kinase-Nluc reporter destabilization hit call ([3]; 2.5 µM) 0 | kinase-Nluc reporter destabilization hit call ([4]; 2.5 µM) 0 | kinase-Nluc reporter destabilization hit call ([5]; 2.5 µM) 0 | kinase-Nluc reporter destabilization hit call ([6]; 2.5 µM) 0 | kinase-Nluc reporter destabilization hit call ([7]; 2.5 µM) 0 | kinase-Nluc reporter destabilization hit call ([8]; 2.5 µM) 0 | kinase-Nluc reporter destabilization hit call ([20]; 2.5 µM) 0 | kinase-Nluc reporter destabilization hit call ([9]; 2.5 µM) 0 | kinase-Nluc reporter destabilization hit call ([10]; 2.5 µM) 0 | kinase-Nluc reporter destabilization hit call [11] 0 | kinase-Nluc reporter destabilization hit call ([12]; 2.5 µM) 0 | kinase-Nluc reporter destabilization hit call ([14]; 2.5 µM) 0 | kinase-Nluc reporter destabilization hit call ([15]; 2.5 µM) 0 | kinase-Nluc reporter destabilization hit call ([16]; 2.5 µM) 0 | kinase-Nluc reporter destabilization hit call ([17]; 2.5 µM) 0
active: kinase-Nluc reporter destabilization hit call ([13]; 2.5 µM) 1

Cc1ccc(O)cc1Nc1ccnc(Nc2cccc(C(N)=O)c2)n1 [Lck inhibitor 2]
0: number of time points ([18]; 10 µM) | number of time points ([19]; 10 µM)
inactive: kinase-Nluc reporter destabilization hit call ([1]; 10 µM) 0 | kinase-Nluc reporter destabilization hit call ([2]; 10 µM) 0 | kinase-Nluc reporter destabilization hit call ([3]; 10 µM) 0 | kinase-Nluc reporter destabilization hit call ([4]; 10 µM) 0 | kinase-Nluc reporter destabilization hit call ([5]; 10 µM) 0 | kinase-Nluc reporter destabilization hit call ([6]; 10 µM) 0 | kinase-Nluc reporter destabilization hit call ([7]; 10 µM) 0 | kinase-Nluc reporter destabilization hit call ([8]; 10 µM) 0 | kinase-Nluc reporter destabilization hit call ([20]; 10 µM) 0 | kinase-Nluc reporter destabilization hit call ([9]; 10 µM) 0 | kinase-Nluc reporter destabilization hit call ([10]; 10 µM) 0 | kinase-Nluc reporter destabilization hit call ([12]; 10 µM) 0 | kinase-Nluc reporter destabilization hit call ([13]; 10 µM) 0 | kinase-Nluc reporter destabilization hit call ([14]; 10 µM) 0 | kinase-Nluc reporter destabilization hit call ([15]; 10 µM) 0 | kinase-Nluc reporter destabilization hit call ([16]; 10 µM) 0 | kinase-Nluc reporter destabilization hit call ([17]; 10 µM) 0
